PMC8794255, “Small molecule inhibitor of Igf2bp1 represses Kras and a pro-oncogenic phenotype in cancer cells” (RNA Biology, 2021)
Construct, isoform or probe ends are uncertain for at least one entry. For some assays here: At least one verdict rests on a figure or table, not on a statement of the authors.

Key:
[1] = test system: La; experiment: FP; conditions: 7773 IC50 > 100 uM; FP: 10 mM Tris pH 8.0, 75 mM KCl, 3 mM MgCl2, 0.5 mM EDTA, 1 mM DTT, tRNA, heparin, room temperature; recombinant protein; label: 5' 6-FAM
[2] = test system: La; experiment: EMSA; conditions: unaffected by 200 uM 7773 or DMSO; recombinant protein; label: 5' 6-FAM

CCCGUUGCUUUUCCUCUGGGAAGGAUGGCGCACGCUGGG [Bcl2 RNA]
binding result [1]: binds
binding result [2]: binds
